Measurements taken from PubChem BioAssay AID1259354 (Paczesny and Yang Labs, IUPUI and University of Michigan, 2018).
About 1,800 (2.3%) of roughly 78,000 compounds were called active. The inconclusive results got no clear call from the source; some entries with a clear call stand among them for comparison. Cut-off read from the data, not from the text of the source: active = inhibition above about 30%; inconclusive = mostly about 10% to 28%; inactive = weaker than that.

Amino acid sequences for entries named in this document (tags omitted). A change or cut given only in a name is not applied to a line headed by its entry.
UniProt Q01638: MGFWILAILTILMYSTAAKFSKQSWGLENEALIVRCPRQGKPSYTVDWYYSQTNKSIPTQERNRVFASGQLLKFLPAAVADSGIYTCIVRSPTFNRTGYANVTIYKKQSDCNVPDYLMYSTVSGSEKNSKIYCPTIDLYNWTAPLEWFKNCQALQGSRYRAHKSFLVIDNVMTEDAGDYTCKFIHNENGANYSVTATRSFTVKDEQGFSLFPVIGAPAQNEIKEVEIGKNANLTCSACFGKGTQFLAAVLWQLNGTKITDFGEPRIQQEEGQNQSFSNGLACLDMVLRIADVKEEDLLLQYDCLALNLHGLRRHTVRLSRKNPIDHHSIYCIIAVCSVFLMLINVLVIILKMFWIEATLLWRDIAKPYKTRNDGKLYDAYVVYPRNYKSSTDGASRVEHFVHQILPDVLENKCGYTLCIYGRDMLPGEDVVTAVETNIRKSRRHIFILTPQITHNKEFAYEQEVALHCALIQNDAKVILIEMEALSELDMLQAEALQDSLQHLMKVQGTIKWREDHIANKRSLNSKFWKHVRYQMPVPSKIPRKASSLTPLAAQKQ

What follows are molecules tested against Interleukin-1 receptor-like 1 (Homo sapiens) (UniProt Q01638) (assay: blocks human ST2 binding to IL-33, primary screen, biochemical, AlphaLISA (AID 1259354)). Details: AlphaLISA ST2-Fc/biotin-IL-33 interaction, 1 h; at 17 µM, stronger effect = higher value.
In the case of `CC1=C(C(N)=O)C(c2ccc3c(c2)OCO3)n2ncnc2N1` (centres undefined), the inhibition is reported as “inactive”.
For `Cc1cc(NC(=O)CSC2=Nc3ccccc3C3=NC(Cc4ccccc4)C(=O)N23)n[nH]1` (centres undefined), the inhibition was inconclusive: 16%.
With `[Li+]` the inhibition was inconclusive: 18%.
`CC(C)(C)NS(=O)(=O)c1ccccc1[N+](=O)[O-]` was tested, and the inhibition was “inactive”.
`COc1cccc(CC(=O)NCc2nc3cccnc3n2Cc2ccc(C)cc2)c1` was tested, and the inhibition was inconclusive: 19%.
For `CC[C@@H]1Cc2cc(O)ccc2C2=C1c1ccc(O)cc1C[C@H]2CC`, the inhibition was inconclusive: 14%.
In the case of `CCN(CC)CCCNCc1ccc(OC)c(OC)c1`, the inhibition is reported as “inactive”.
For `Cc1cccc2nc(C(=O)N3CC(c4ccncc4)C3)cn12`, the inhibition was “inactive”.
`Cc1cc(NC(=O)CS(=O)(=O)c2cn(Cc3cccc(F)c3)c3ccccc23)no1` was tested, and the inhibition was “inactive”.
In the case of `c1ccc(COc2ccc(C3CC(c4ccccc4)Nc4ncnn43)cc2)cc1` (centres undefined), the inhibition is reported as inconclusive: 10%.
`CCCN=C(C)c1c(CCC)[nH]n(-c2nc3ccccc3s2)c1=O` was tested, and the inhibition was inconclusive: 15%.
`O=C(CSc1nc2c(sc3ccccc32)c(=O)n1Cc1ccccc1)NCc1ccco1` was tested, and the inhibition was “inactive”.
In the case of `OC(C#CC1CC1)c1ccco1` (centres undefined), the inhibition is reported as inconclusive: 24%.
For `Cc1ccc(O)c(C=Nc2ccc(Br)c3cccnc23)c1`, the inhibition was active: 97%.
For `O=C1CCCN1c1ccc(CNC2CCC3(CCNCC3)CC2)cc1`, the inhibition was inconclusive: 17%.
In the case of `Cc1c(N=Cc2cc([N+](=O)[O-])ccc2N2CCCCC2)c(=O)n(-c2ccccc2)n1C`, the inhibition is reported as active: 44%.
In the case of `COc1ccc(CN2CCCN(CC(=O)Nc3ccc(OC)c(OC)c3)S2(=O)=O)cc1`, the inhibition is reported as “inactive”.
`COc1ccc2nc3oc(C(=O)Nc4cc(Cl)c(OC)cc4OC)cc3cc2c1` was tested, and the inhibition was inconclusive: 10%.
With `COc1ccc2c(c1)CCc1c(C(=O)Nc3cc(Cl)ccc3O)noc1-2` the inhibition was inconclusive: 23%.
For `CCC(=O)c1ccc(OCC(=O)N2CCN(C(=O)C3CCCO3)CC2)cc1` (centres undefined), the inhibition was inconclusive: 18%.
`CN(Cc1csc(C23CC4CC(CC(C4)C2)C3)n1)[C@@H]1CS(=O)(=O)C[C@H]1O` was tested, and the inhibition was inconclusive: 20%.
In the case of `CCn1c(C2CCCN(Cc3cccn3-c3nccs3)C2)nn(C)c1=O` (centres undefined), the inhibition is reported as inconclusive: 14%.
`COc1ccc(C2CC(c3ccc(OC)c(OC)c3)=NN2S(=O)(=O)c2ccc(C)cc2)cc1` (centres undefined) was tested, and the inhibition was inconclusive: 15%.
With `COC(=O)c1ccc(S(=O)(=O)N2CC(c3ccccn3)C2)n1C` the inhibition was inconclusive: 11%.
For `CNCc1cn(C[C@H]2O[C@@H](CC(=O)NCc3ccc(F)cc3)[C@H](O)[C@@H]2O)nn1`, the inhibition was inconclusive: 16%.
For `Cc1ccc(Cl)cc1NC(=O)c1cc2c(=O)n3cccc(C)c3nc2s1`, the inhibition was “inactive”.
In the case of `COc1ncccc1-c1nc(N(C)C)nc2c1CCCC2`, the inhibition is reported as inconclusive: 13%.
In the case of `O=C(c1cc(-c2ccc(Cl)cc2)on1)N1CCCCC1`, the inhibition is reported as “inactive”.
In the case of `CCn1ncc(CN2CCN(C(c3ccccc3)c3ccccc3)CC2)c1C`, the inhibition is reported as inconclusive: 21%.
In the case of `O=C(Nc1cccnc1)[C@@H]1C[C@@H]2CC[C@H]1C2`, the inhibition is reported as inconclusive: 16%.
With `COc1ccc(NC(=O)N[C@H]2CO[C@H]3[C@@H]2OC[C@H]3OC(=O)Nc2cccc(C(C)=O)c2)cc1` the inhibition was inconclusive: 13%.
For `CC(C)NC(=O)C[C@@H]1O[C@H](CNC[C@H]2O[C@@H](CC(=O)NC(C)C)[C@H](O)[C@@H]2O)[C@@H](O)[C@H]1O`, the inhibition was inconclusive: 11%.
In the case of `COc1ccc(-c2ccc[nH]c2=O)cn1`, the inhibition is reported as inconclusive: 12%.
For `CCOC(=O)c1cc(C#N)c(SCC)[nH]c1=O`, the inhibition was “inactive”.
For `CCOc1ccccc1C1C(C(=O)OCCSCC)=C(C)NC2=C1C(=O)CC(C)(C)C2` (centres undefined), the inhibition was “inactive”.
For `O=C(CSc1nnnn1-c1ccc(F)c(Cl)c1)N1CCCCC1`, the inhibition was inconclusive: 12%.
For `Cc1ccc(N2C(=O)C3N=NN(CC(=O)Nc4ccc(F)cc4F)C3C2=O)cc1` (centres undefined), the inhibition was “inactive”.
`NC(=O)C1(N2CCCCC2)CCN(C2CC(=O)N(c3ccc(C(F)(F)F)cc3)C2=O)CC1` (centres undefined) was tested, and the inhibition was inconclusive: 28%.
In the case of `Cc1cccc2sc(NC(=O)c3ccc(S(=O)(=O)N4CCc5ccccc54)cc3)nc12`, the inhibition is reported as “inactive”.
In the case of `Nc1ccc2nc(SCC(=O)c3ccc(F)cc3)sc2c1`, the inhibition is reported as inconclusive: 16%.
With `COc1cc(CN2CCN(c3ccc(F)cc3)CC2)cc(OC)c1OC` the inhibition was inconclusive: 17%.
For `Cc1[nH]c2ccccc2c1C(Nc1ccccn1)c1cccs1` (centres undefined), the inhibition was inconclusive: 17%.
In the case of `COc1ccc(C(=O)Nc2nc(-c3cc4ccccc4oc3=O)cs2)cc1OC`, the inhibition is reported as active: 38%.
`Oc1ccccc1NCc1nc2ccccc2n1Cc1ccccc1Cl` was tested, and the inhibition was inconclusive: 13%.
With `CN1CCC2(CC1)CCN(C(=O)CCn1nnc3ccccc31)C2` the inhibition was inconclusive: 17%.
With `Cc1ccc(-c2onc3ccc(Cl)cc23)cc1` the inhibition was active: 45%.
In the case of `CC(=O)c1ccccc1-c1cc(C(=O)O)cc(S(=O)(=O)N2CCCCCC2)c1`, the inhibition is reported as inconclusive: 11%.
With `CCOCCCNS(=O)(=O)c1cccc2cccnc12` the inhibition was inconclusive: 15%.
For `CSc1nnc2c(n1)OC(c1cccc(C)n1)N(C(C)=O)c1ccccc1-2` (centres undefined), the inhibition was “inactive”.
For `COc1cccc(N2CCN(C3CC(=O)N(c4ccc(Cl)c(Cl)c4)C3=O)CC2)c1` (centres undefined), the inhibition was inconclusive: 10%.
With `Cc1nc2ncccn2c1C(=O)N1CC[C@@H](c2ccc3c(c2)OCO3)[C@H](O)C1` the inhibition was inconclusive: 14%.
In the case of `COc1ccc(/C=C2/SC(=N)N(c3ccccc3OC)C2=O)cc1`, the inhibition is reported as inconclusive: 11%.
`O=[N+]([O-])c1ccc(CN2CCSCC2)o1` was tested, and the inhibition was inconclusive: 11%.
For `COc1cc(F)ccc1-c1cnc(N)cn1`, the inhibition was inconclusive: 22%.
For `Cc1ccc(C2CC(=O)C3=C(C2)Nc2ccccc2NC3c2cccs2)cc1` (centres undefined), the inhibition was inconclusive: 12%.
In the case of `O=C(O)CCC(=O)N[C@H]1CCN2C(=O)c3cc(-c4cccc(C(F)(F)F)c4)ccc3NC(=O)[C@H]12`, the inhibition is reported as inconclusive: 12%.
With `COc1ccc(C(=O)N2CC[C@@H](c3ccc4ccccc4c3)[C@H](O)C2)o1` the inhibition was inconclusive: 13%.
In the case of `COc1cc(O)c(CCO)c2c1C(=O)C[C@@H](C)O2`, the inhibition is reported as inconclusive: 14%.
`CCOc1ccc(CN2CCN(c3ccccc3OCC)CC2)cc1` was tested, and the inhibition was inconclusive: 24%.
With `COc1ccc2cc3cc(C(=O)NCc4cc(Br)ccc4OC)oc3nc2c1` the inhibition was inconclusive: 10%.
In the case of `CN1CCN([C@@H]2[C@H](O)[C@H](CO)O[C@@H]2CNC(=O)c2ccccc2)CC1`, the inhibition is reported as inconclusive: 13%.
For `O=C1Nc2ccccc2C(O)(C(=O)NC2CCCCC2)N1c1ccc(Cl)c(Cl)c1` (centres undefined), the inhibition was “inactive”.
In the case of `O=C(Cc1ccccc1)Nc1ccnn1C1CCN(Cc2ccc3cccc(F)c3n2)CC1`, the inhibition is reported as inconclusive: 13%.
In the case of `CC(C)C(C(=O)NC1CCCC1)N1CCN(C)C(=O)C1=O` (centres undefined), the inhibition is reported as inconclusive: 21%.
In the case of `CCCOc1ccc(C2C(C(=O)OC(C)CC)=C(C)NC3=C2C(=O)C(C(=O)OC)C(C)C3)cc1` (centres undefined), the inhibition is reported as “inactive”.
For `CC1=C(C(=O)Nc2ccc(C)cc2)C(c2ccc(N(C)C)cc2)n2ncnc2N1` (centres undefined), the inhibition was “inactive”.
With `CCOCCCNC(=O)CSc1c2c(nc3ccc(Cl)cc13)CCCC2` the inhibition was inconclusive: 14%.
In the case of `CCOc1ccccc1NC(C)=O`, the inhibition is reported as “inactive”.
For `C[n+]1cccc(C2CCCCN2C(=O)c2ccccc2)c1` (centres undefined), the inhibition was “inactive”.
In the case of `O=[N+]([O-])c1ccc2[nH]c(-c3ccccc3)cc2c1`, the inhibition is reported as inconclusive: 10%.
For `CCc1cc2c(=O)c(-c3ccccc3Cl)c(C)oc2cc1O`, the inhibition was “inactive”.
In the case of `Cc1nc2c(ccc3nc(NC(=O)COc4ccccc4)sc32)s1`, the inhibition is reported as inconclusive: 16%.
`Cc1nonc1OCC(C)(COc1nonc1C)Nc1ccc([N+](=O)[O-])cc1[N+](=O)[O-]` was tested, and the inhibition was active: 40%.
In the case of `CC(=O)O[C@H]1C[C@@](O)(C(C)C)[C@@H]2[C@@H](OC(=O)c3ccc(O)cc3)CC(C)=CC[C@@]12C`, the inhibition is reported as inconclusive: 23%.
In the case of `O=c1c2oc3ccccc3c2ncn1Cc1cccc(Cl)c1`, the inhibition is reported as inconclusive: 23%.
In the case of `Cc1ccccc1C1=N/C(=C\c2sccc2C)C(=O)O1`, the inhibition is reported as inconclusive: 29%.
For `Cc1cc(N2C(=O)c3ccc([N+](=O)[O-])cc3C2=O)no1`, the inhibition was “inactive”.
In the case of `CCOc1cc2c(cc1OCC)C1C(C(=O)N3CCCCC3CC)c3ccccc3C(=O)N1CC2` (centres undefined), the inhibition is reported as “inactive”.
With `Cc1cc(Sc2ccccc2NC(=O)Nc2cccc(Cl)c2)n2ncnc2n1` the inhibition was “inactive”.
For `CCOC(=O)N1CCN(C(=O)c2ccc(N(Cc3ccccc3Cl)S(C)(=O)=O)cc2)CC1`, the inhibition was “inactive”.
With `Cc1nn2cc(CCNC(=O)C3CC(=O)N(CC(C)C)C3)nc2s1` (centres undefined) the inhibition was inconclusive: 19%.
For `Cc1nc(N)nc(C)c1CC(=O)N1CCOC(C(F)(F)F)C1` (centres undefined), the inhibition was inconclusive: 10%.
In the case of `CNC(=O)Cn1cc(-c2cccc(-n3cccn3)c2)cn1`, the inhibition is reported as inconclusive: 11%.
With `CC12C=CC(O1)C1C(=O)N(c3ccccc3Cl)C(=O)C12` (centres undefined) the inhibition was “inactive”.
For `COC(=O)C(C)Sc1nc2c(c(=O)n1-c1ccc(F)cc1)SCC2` (centres undefined), the inhibition was “inactive”.
`CN(C)c1nc2ncnc(SCC(=O)Nc3cccc(Cl)c3)c2s1` was tested, and the inhibition was inconclusive: 21%.
With `COC(=O)c1ccc(C2NC(=O)c3c(sc(C)c3C)N2)cc1` (centres undefined) the inhibition was inconclusive: 17%.
With `CS(=O)(=O)NC1CCN(C(=O)c2ccccc2C2CCNC2)CC1` (centres undefined) the inhibition was inconclusive: 16%.
In the case of `O=C1c2cccnc2C(O)N1Cc1ccccc1` (centres undefined), the inhibition is reported as inconclusive: 10%.
`Cc1occc1C(=O)Nc1ccc(C(=O)NC2(C)CCCCC2)cc1` was tested, and the inhibition was inconclusive: 20%.
`CC(=O)c1cc(C#N)c(SCCCCSc2nc(C)c(C(C)=O)cc2C#N)nc1C` was tested, and the inhibition was inconclusive: 16%.
With `CNC(=O)CN1C(=O)/C(=C\c2ccc(Cl)cc2)Sc2ccccc21` the inhibition was inconclusive: 23%.
With `CCOC(=O)CNc1cccc(C(=O)N2CCCn3cncc3C2)c1` the inhibition was “inactive”.
`O=C(NC1CCCCCCC1)c1ccc2c(c1)N(Cc1ccccc1)C(=O)CS2` was tested, and the inhibition was inconclusive: 12%.
